PubChem BioAssay AID1259254 | NCATS | 2017
The whole screen tested about 59,000 reagents; this is a part drawn at random. Of all reagents, about 1,550 (2.6%) are marked active. 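G2 share is only a proxy for re-replication; each gene was hit by three separate siRNAs, and active genes were retested.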 Reagents against one gene are numbered here. Further read-outs or replicates are left out here. Not given: the amount of reagent.

Screen: 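Gene knock-downs that lead to re-replication, shown by excess G2 DNA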 (primary screen)
System: human HCT116 colorectal cancer cells
Reagents: single siRNA against human genes
Duration: 3 days
Read-out: 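Nuclei stained with Hoechst and imaged; cell-cycle phase assigned by DNA content; G2 share scaled per plate, non-targeting siRNA 0%, GMNN siRNA 100%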
Direction: G2 robust z-score and G2 cells, % of GMNN control: higher = more G2 cells, more excess DNA replication
Rule for the call: 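An siRNA counts as active if its G2 robust z-score lies at least 5 MADs above the screen median; here such calls match roughly 38% of GMNN control or more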

Depletion of GKN2 (gastrokine 2) #1 came out at: G2 robust z-score -0.8; G2 cells, % of GMNN control -2.66; inactive.
GKN2 (gastrokine 2) #2 gave G2 robust z-score 2.13; G2 cells, % of GMNN control 18; inactive.
After knock-down of GKN2 (gastrokine 2) #3 the results were G2 robust z-score -0.409; G2 cells, % of GMNN control 0.0929; inactive.
Silencing of HYOU1 (hypoxia up-regulated 1) #1 resulted in: G2 robust z-score -0.727; G2 cells, % of GMNN control -2.15; inactive.
For HYOU1 (hypoxia up-regulated 1) #2, the values are G2 robust z-score -0.618; G2 cells, % of GMNN control -1.38; inactive.
Knock-down of HYOU1 (hypoxia up-regulated 1) #3 came out at: G2 robust z-score -0.534; G2 cells, % of GMNN control -0.787; inactive.
With knock-down of DYRK1A #1, the record shows G2 robust z-score -0.108; G2 cells, % of GMNN control 2.2; inactive.
DYRK1A #2 showed G2 robust z-score 8.53; G2 cells, % of GMNN control 63; active.
For DYRK1A #3, the entry reads G2 robust z-score -0.173; G2 cells, % of GMNN control 1.75; inactive.
For RPS18P5 (ribosomal protein S18 pseudogene 5) #1, the entry reads G2 robust z-score 1.15; G2 cells, % of GMNN control 11.1; inactive.
Knock-down of RPS18P5 (ribosomal protein S18 pseudogene 5) #2 came out at: G2 robust z-score -0.234; G2 cells, % of GMNN control 1.32; inactive.
After knock-down of RPS18P5 (ribosomal protein S18 pseudogene 5) #3, the screen gave G2 robust z-score -0.505; G2 cells, % of GMNN control -0.584; inactive.
ITPRID1 (ITPR interacting domain containing 1) #1 scored G2 robust z-score -0.889; G2 cells, % of GMNN control -3.29; inactive.
For ITPRID1 (ITPR interacting domain containing 1) #2, the values are G2 robust z-score 1.17; G2 cells, % of GMNN control 11.2; inactive.
For ITPRID1 (ITPR interacting domain containing 1) #3, the values are G2 robust z-score -0.821; G2 cells, % of GMNN control -2.81; inactive.

An excerpt of the results above:
RPS18P5 (ribosomal protein S18 pseudogene 5) #2 — G2 robust z-score: -0.234; G2 cells, % of GMNN control: 1.32; Call: inactive
RPS18P5 (ribosomal protein S18 pseudogene 5) #3 — G2 robust z-score: -0.505; G2 cells, % of GMNN control: -0.584; Call: inactive
ITPRID1 (ITPR interacting domain containing 1) #1 — G2 robust z-score: -0.889; G2 cells, % of GMNN control: -3.29; Call: inactive

Additional entries follow.
With knock-down of PLXNB2 (plexin B2) #1 the results were G2 robust z-score -0.465; G2 cells, % of GMNN control -0.306; inactive.
PLXNB2 (plexin B2) #2 gave G2 robust z-score -0.437; G2 cells, % of GMNN control -0.107; inactive.
With knock-down of PLXNB2 (plexin B2) #3, the screen gave G2 robust z-score 0.0772; G2 cells, % of GMNN control 3.51; inactive.
LHX2 (LIM homeobox 2) #1 gave G2 robust z-score -0.108; G2 cells, % of GMNN control 2.21; inactive.
Knock-down of LHX2 (LIM homeobox 2) #2 gave: G2 robust z-score -1.02; G2 cells, % of GMNN control -4.23; inactive.
For LHX2 (LIM homeobox 2) #3 the deposit lists G2 robust z-score -0.684; G2 cells, % of GMNN control -1.85; inactive.
Against AWAT2 (acyl-CoA wax alcohol acyltransferase 2) #1, the entry reads G2 robust z-score 3.48; G2 cells, % of GMNN control 27.4; inactive.
After knock-down of AWAT2 (acyl-CoA wax alcohol acyltransferase 2) #2, the screen gave G2 robust z-score -0.548; G2 cells, % of GMNN control -0.886; inactive.
Against AWAT2 (acyl-CoA wax alcohol acyltransferase 2) #3, the entry reads G2 robust z-score -0.231; G2 cells, % of GMNN control 1.34; inactive.
